Record: PubChem BioAssay AID504808 (Drosophila RNAi Screening Center, 2011)

Aim: 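Fly genes required to hold E2F transcription in check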 (primary screen)
Cell system: Drosophila S2 cells
Knock-down reagent: long dsRNA against Drosophila genes
Detection: 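Dual luciferase plate measurements; E2F-specific signal taken as firefly over Renilla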
Reading the numbers: E2F firefly: higher = more E2F reporter activity; Renilla normaliser: higher = more normaliser reporter signal
Rule for the call: 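a knock-down counted as active when the firefly/Renilla E2F signal rose above 50%, a threshold chosen arbitrarily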
The deposit covers about 21,000 reagents; shown is an unselected part of those with a known target gene and a result. In the full data, 18 (0.084%) were called active. 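Raw counts without plate normalisation, one of two replicates; the ratio scores behind the calls were not deposited.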 Reagents against one gene are numbered here. Names joined by + are all predicted targets of the reagent. No sequences are given here. The record does not give: the amount of reagent, the time to read-out.

gene | reagent no. | E2F firefly, rep 1 | Renilla normaliser, rep 1 | Call
Sur (GeneID 34350) | 1 | 82063 | 3230 | inactive
CG31533 (GeneID 318788) | 1 | 88243 | 2528 | inactive
HHEX (GeneID 42495) | 1 | 1.15e5 | 6696 | inactive
CG11159 (GeneID 37341) | 1 | 89898 | 4209 | inactive
dgt4 (GeneID 31361) | 1 | 1.25e5 | 5287 | inactive
CG14324 (GeneID 42119) | 1 | 94543 | 4942 | inactive
Obp19d (GeneID 33040) | 1 | 1.40e5 | 5451 | inactive
Nadk1b (GeneID 36507) | 1 | 1.17e5 | 4795 | inactive
Nadk1b (GeneID 36507) | 2 | 2796 | 204 | inactive
Nadk1b (GeneID 36507) | 3 | 99968 | 4508 | inactive
Fntb (GeneID 41989) | 1 | 74888 | 4218 | inactive
FarO (GeneID 45707) | 1 | 1.26e5 | 6126 | inactive
CG3987 (GeneID 41822) | 1 | 76851 | 3868 | inactive
mthl4 (GeneID 36960) | 1 | 1.54e5 | 5288 | inactive
CG10097 + CG10096 | 1 | 71148 | 3883 | inactive
CG10097 + CG10096 | 2 | 1.39e5 | 6261 | inactive
CG17681 (GeneID 35086) | 1 | 96417 | 4070 | inactive
CG34428 (GeneID 5740867) | 1 | 1.26e5 | 6869 | inactive
CG15347 (GeneID 31779) | 1 | 1.11e5 | 5559 | inactive
Bace (GeneID 34182) | 1 | 49581 | 3351 | inactive
Ect3 (GeneID 41457) | 1 | 1.18e5 | 5466 | inactive
CG11333 (GeneID 43714) | 1 | 57026 | 3684 | inactive
MRG15 (GeneID 41850) | 1 | 75365 | 3575 | inactive
Fbp2 (GeneID 34259) | 1 | 75315 | 3079 | inactive
CR18228 (GeneID 8674096) | 1 | 1.34e5 | 6246 | inactive
phr (GeneID 35735) | 1 | 1.48e5 | 4817 | inactive
Dph5 (GeneID 42663) | 1 | 62121 | 3577 | inactive
CG18666 (GeneID 50441) | 1 | 1.53e5 | 5280 | inactive
CG3520 (GeneID 37708) | 1 | 1.01e5 | 4404 | inactive
Arr1 (GeneID 35078) | 1 | 1.03e5 | 4601 | inactive
Hip14 (GeneID 39747) | 1 | 83920 | 3203 | inactive
CG33791 + CG12105 + CG18170 | 1 | 80642 | 3552 | inactive
cos (GeneID 35653) | 1 | 91479 | 3347 | inactive
TpnC73F (GeneID 39916) | 1 | 1.48e5 | 8013 | inactive
CG4884 (GeneID 43357) | 1 | 1.11e5 | 6104 | inactive
CG7300 (GeneID 34472) | 1 | 86565 | 3017 | inactive

The list goes on, starting with the last 3 of the part before.
gene | reagent no. | E2F firefly, rep 1 | Renilla normaliser, rep 1 | Call
TpnC73F (GeneID 39916) | 1 | 1.48e5 | 8013 | inactive
CG4884 (GeneID 43357) | 1 | 1.11e5 | 6104 | inactive
CG7300 (GeneID 34472) | 1 | 86565 | 3017 | inactive
Eaat2 (GeneID 33247) | 1 | 1.42e5 | 6147 | inactive
Eaat2 (GeneID 33247) | 2 | 85917 | 4090 | inactive
Ttc7 (GeneID 48387) | 1 | 78524 | 3421 | inactive
CG6497 (GeneID 39924) | 1 | 1.64e5 | 7160 | inactive
Ehbp1 (GeneID 36912) | 1 | 57521 | 2927 | inactive
CG32344 (GeneID 326208) | 1 | 65296 | 3552 | inactive
CG4483 (GeneID 39057) | 1 | 49862 | 3184 | inactive
Uros2 (GeneID 41908) | 1 | 1.20e5 | 6014 | inactive
beat-Vb (GeneID 41583) | 1 | 85924 | 2591 | inactive
beat-Vb (GeneID 41583) | 2 | 49677 | 3884 | inactive
beat-Vb (GeneID 41583) | 3 | 1.09e5 | 5010 | inactive
Pde6 (GeneID 41760) | 1 | 74020 | 3387 | inactive
Pde6 (GeneID 41760) | 2 | 1.17e5 | 5757 | inactive
Pde6 (GeneID 41760) | 3 | 1.27e5 | 5350 | inactive
Cad88C (GeneID 41774) | 1 | 1.15e5 | 5296 | inactive
E2f2 (GeneID 35381) | 1 | 71310 | 3540 | inactive
Bet3 (GeneID 39090) | 1 | 1.24e5 | 7665 | inactive
Mys45A (GeneID 35925) | 1 | 2458 | 193 | inactive
Osi5 (GeneID 40759) | 1 | 1.34e5 | 6592 | inactive
CG13160 (GeneID 36343) | 1 | 1.01e5 | 4173 | inactive
SmD2 (GeneID 40781) | 1 | 47721 | 201 | inactive
